In patent US20030092759A1, “Anticonvulsant derivatives useful for the treatment of restless limb syndrome and periodic limb movement disorder” (priority 2001, published 2003):
At least one structure is not confirmed: it was looked up by name or label, or the drawing left a doubt.

System: restless legs syndrome (RLS)
Assay: clinical case studies of patients with restless legs syndrome
Format: in vivo, human
Conditions: Example 2, person; used in the previous 15 years
Protocol: The ability of the compounds of formula I to treat restless legs syndrome, restless arm syndrome and associated sleep disorders is based on the results of recent clinical case studies, as described in more detail below.
Prior to treatment, within 15 minutes of falling asleep, the patient was awakened by uncontrollable jerking of their legs. […] The patient had also used lorazepam and alprazolam to treat the RLS, with some benefit.
The patient was switched to topiramate, initially at 25 mg, with a gradual increase in dosage to 75 mg/day for treatment of the RLS. Sertraline HCl at 100 mg/day was added for the treatment of their concurrent depression. Lorazepam and alprazolam were discontinued. The RLS and depression symptoms were both reduced.
In the previous 15 years, the patient had also used carisoprodol, chlordiazepoxide HCl, clorazepate dipotassium, meprobamate, phenobarbital, flurazepam HCl, promethazine, levodopa and carbidopa, with some benefit in controlling the RLS.
Topiramate was started at 25 mg/day and increased gradually to 300 mg/day during a six month period.
The patient was a person, with diagnosed recurrent unipolar depression, post traumatic stress disorder, panic disorder, nicotine, alcohol and cannabis dependency. The patient also complained of migraine headaches and restless leg syndrome. […]

CCC1(c2ccccc2)C(=O)NC(=O)NC1=O [phenobarbital]
benefit in controlling the RLS, earlier treatment: some benefit
